Measurements reported in patent US20060083711A1, “Methods and products related to the intracellular delivery of polysaccharides” (Massachusetts Institute of Technology, priority 2004, published 2006).
Entries after “also recorded” stand apart in the source; their conditions may differ. At least one compound was matched to its structure with a doubt left.

Legend:
[1] = system: PC-3 cells; test: PC-3 proliferation assay (whole cell number); format: cell-based, human; settings: 50 μM LY294002, 20 μM PD98059, 20 μM U0126, 1 μM SB203580; heparin 500 ng/ml
Method: PC-3 cells were grown until confluence in 75 cm^2 flasks. Each flask was washed with 20 ml PBS, and treated with 3 ml trypsin-EDTA at 37° C. for 3-5 minutes, until cells detached. Cells were centrifuged for 3 min at 195×g. The supernatant was aspirated, and the cells were resuspended in 10 ml media. The cell density was measured using an electronic cell counter, and the suspension was diluted to 50,000 cells/ml. The suspension was plated 1 ml/well into 24-well tissue culture plates. […] Whole cell number was determined using an electronic cell counter. […]
PC-3 cells were grown until confluence in 75 cm^2 flasks. […] The cell suspension was diluted to 50,000 cells/ml based on the readings of an electronic cell counter. […] Whole cell number was determined using an electronic cell counter. […]
To produce heparin digests, heparin was treated with PBS, heparinase I (hepI), or hepIII for 30 minutes, and boiled for 30 prior to addition to cells. Digestion was verified and quantified by UV spectroscopy at 232 nm (27). […]
A preliminary screen was performed on PC-3 cells by proliferation assay using the nine polymers described at polymer:heparin (w/w) ratios of 10:1, 20:1, 30:1, 40:1, and 60:1. The three best formulations (polymer and ratio) were selected and analyzed further. […] In vitro assessment of polymer activity was measured by proliferation assay with a heparin concentration of 1 μg/ml. […]

[2] = system: Daudi cells; test: Whole cell proliferation assay; format: cell-based, human; settings: FBS-deficient media; 50 μM LY294002, 20 μM PD98059, or 1 μM SB203580
Method: For proliferation assays using Daudi cells, cells were collected from 75 cm^2 flasks, washed three times with FBS-deficient media or proliferation media, and resuspended into 10 ml of the same media. Cells were diluted to 1×10^5 cells/ml based on the reading of an electronic cell counter, and plated 1 ml/well in 24-well plates. Wells were treated with PBS, heparin, A5, or A5-heparin conjugate in 10 μl volumes, and incubated for 72 hours at 37° C., 5% CO2. A5-heparin conjugates were additionally supplemented with 50 μM LY294002, 20 μM PD98059, or 1 μM SB203580, 50 mM sodium chlorate, or 10 ng/ml FGF2, as appropriate. Whole cell number was converted to a percent growth relative to PBS treatment. […]
To probe the role of sulfation patterns and fine structure in inducing the effects of A5-heparin conjugates, heparin was partially digested with heparinases prior to conjugation. […] After incubating for 72 hours at 37° C., 5% CO2, the resultant whole cell count was determined by electronic cell counter, and data were converted to a percent growth relative to Daudi treated with PBS alone.
To examine the effects of protamine sulfate and heparinases on Daudi growth, cells were collected from 75 cm^2 flasks, pelletted, and resuspended into 10 ml of propagation media. Cells were diluted to 1×10^5 cells/ml based on the reading of an electronic cell counter, and plated 1 ml/well in 24-well plates. […]

## O=c1cc(N2CCOCC2)oc2c(-c3ccccc3)cccc12 [LY294002]
[1]
  effect of kinase inhibitor on heparin-mediated growth inhibition: abrogated the inhibitory capacity of heparin; also recorded: prevented heparin-mediated growth inhibition
[2]
  direct effect of kinase inhibitor on Daudi whole cell number: neither inhibition of PI3K with LY294002 (p>0.39) nor inhibition of Erk and Mek with PD98059 (p>0.64) had a direct effect
